Consider 2 molecules from article PMC4578135.

These are yes or no findings as the source states them, for the method shown. Binding seen in cells or lysates may run through a third protein. Some entries that bind do so weakly or less than the wild type.

This assay has as its target HTLV-1 Tax protein (HTLV-1) (UniProt P03409). Kind of assay: co-IP + pull-down; immunoprecipitation and Ni-NTA pulldown assays; cells, tags and which protein was held not stated.

B1: endogenous Cep63 (protein, UniProt Q96MT8 1-703)
chain: MEALLEGIQNRGHGGGFLTSCEAELQELMKQIDIMVAHKKSEWEGRTHALETCLKIREQELKSLRSQLDVTHKEVGMLHQQVEEHEKIKQEMTMEYKQELKKLHEELCILKRSYEKLQKKQMREFRGNTKNHREDRSEIERLTAKIEEFRQKSLDWEKQRLIYQQQVSSLEAQRKALAEQSEIIQAQLVNRKQKLESVELSSQSEIQHLSSKLERANDTICANELEIERLTMRVNDLVGTSMTVLQEQQQKEEKLRESEKLLEALQEEKRELKAALQSQENLIHEARIQKEKLQEKVKATNTQHAVEAIRPREESLAEKKYTSQGQGDLDSVLSQLNFTHTSEDLLQAEVTCLEGSLESVSATCKQLSQELMEKYEELKRMEAHNNEYKAEIKKLKEQILQGEQSYSSALEGMKMEISHLTQELHQRDITIASTKGSSSDMEKRLRAEMQKAEDKAVEHKEILDQLESLKLENRHLSEMVMKLELGLHEAKEISLADLQENYIEALNKLVSENQQLQKDLMNTKSQLEISTQMCKKQNDRIFKPTHSRTTEFKNTEFKPTHGQHRHDGIKTEHYKTDLHSPRGQASDSINPMSRVLSPLSPQISPCSSTRSLTSYSLCKTHSLPSALDTNEANFSDTMSESMNDQEEFISSCSLPVSPLGSIATRFLEEEELRSHHILERLDAHIEELKRESEKTVRQFTALK
Regarding B1, the binding result is recorded as “binds”.

B2: ectopically expressed Cep63 (protein, UniProt Q96MT8 1-703)
chain: B1 chain
For the molecule B2, the binding entry was “binds”.
